PubChem BioAssay AID1224830 | NIAID – 2016
Screen: 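Host factors that control LPS-induced TNF expression in human macrophages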 (primary screen). System: human THP-1 monocytic leukaemia cells, TNF dual-luciferase reporter clone, PMA-differentiated to macrophage-like cells. Reagents: siRNA pool against human genes, 50 nM. Time to read-out: LPS for 4 h, given about 3 days after siRNA transfection. Challenge: bacterial LPS (TLR4 ligand), 10 ng/ml. Detection: 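Ratio of firefly to renilla light, scaled to the plate median and expressed as a robust z-score per replicate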. Direction: TNF reporter robust z-score: higher = stronger TNF reporter response to LPS. Hit rule: 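a well is active when its z-score exceeds 2.8 or falls below -1.5; control wells carry no call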.
In all, the deposit lists about 18,000 reagents; shown is a part drawn at random. Over the whole deposit, about 2,900 (16%) were called active. 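Calls are made per well; low scores hint the gene aids the LPS response, high scores that it dampens it.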 Repeated entries: four replicate wells of each siRNA pool. Reagent sequences are not shown.

| target | TNF reporter robust z-score | Outcome |
| --- | --- | --- |
| PCMTD1 | -0.73 | inactive |
| PCMTD1 | -0.79 | inactive |
| PCMTD1 | -0.57 | inactive |
| PCMTD1 | 0.66 | inactive |
| CKLF | -1.46 | inactive |
| CKLF | -0.91 | inactive |
| CKLF | -1.59 | active |
| CKLF | -1.6 | active |
| SNAPC1 | 1.11 | inactive |
| SNAPC1 | 2.04 | inactive |
| SNAPC1 | 2.23 | inactive |
| SNAPC1 | 1.25 | inactive |
| ITGAE | 0.45 | inactive |
| ITGAE | -0.81 | inactive |
| ITGAE | -0.14 | inactive |
| ITGAE | -0.46 | inactive |
| TENT4A | 1.09 | inactive |
| TENT4A | 0.52 | inactive |
| TENT4A | 0.97 | inactive |
| TENT4A | 0.87 | inactive |
| SCNN1G | -1.05 | inactive |
| SCNN1G | -1.14 | inactive |
| SCNN1G | -0.43 | inactive |
| SCNN1G | -0.82 | inactive |
| VPS9D1 | 1.15 | inactive |
| VPS9D1 | 0.46 | inactive |
| VPS9D1 | 0.52 | inactive |
| ACD | 1.13 | inactive |
| ACD | 0.24 | inactive |
| ACD | -0.83 | inactive |
| ACD | 1.14 | inactive |
| LRCH4 | 0.7 | inactive |
| LRCH4 | 0.14 | inactive |
| LRCH4 | -0.63 | inactive |
| LRCH4 | 0.44 | inactive |
| HOOK2 | -1.31 | inactive |
| HOOK2 | -0.98 | inactive |
| HOOK2 | -1.26 | inactive |
| HOOK2 | 0.4 | inactive |

Quoted from the listing, 11 entries:
| target | TNF reporter robust z-score | Outcome |
| --- | --- | --- |
| ITGAE | -0.46 | inactive |
| TENT4A | 1.09 | inactive |
| TENT4A | 0.52 | inactive |
| TENT4A | 0.97 | inactive |
| TENT4A | 0.87 | inactive |
| SCNN1G | -1.05 | inactive |
| SCNN1G | -1.14 | inactive |
| SCNN1G | -0.43 | inactive |
| SCNN1G | -0.82 | inactive |
| VPS9D1 | 1.15 | inactive |
| VPS9D1 | 0.46 | inactive |

Further results follow.
| target | TNF reporter robust z-score | Outcome |
| --- | --- | --- |
| USP6 | 0.59 | inactive |
| USP6 | 2.05 | inactive |
| USP6 | 0.33 | inactive |
| USP6 | 1.28 | inactive |
| CLPSL1 | -1.38 | inactive |
| CLPSL1 | -0.55 | inactive |
| CLPSL1 | -0.52 | inactive |
| CLPSL1 | 0.78 | inactive |
| TFRC | -0.26 | inactive |
| TFRC | 0.07 | inactive |
| TFRC | -0.62 | inactive |
| TFRC | 0.7 | inactive |
| CYSLTR2 | -0.28 | inactive |
| CYSLTR2 | -0.17 | inactive |
| CYSLTR2 | -0.24 | inactive |
| CYSLTR2 | 0.13 | inactive |
| FTH1 | 0.48 | inactive |
| FTH1 | 0.4 | inactive |
| FTH1 | 0 | inactive |
| FTH1 | 0.9 | inactive |
| LST1 | -0.37 | inactive |
| LST1 | 0.56 | inactive |
| LST1 | 0.33 | inactive |
| LST1 | 1.28 | inactive |
| ZNF284 | 0.02 | inactive |
| ZNF284 | 0.67 | inactive |
| ZNF284 | 0.39 | inactive |
| ZNF284 | -0.03 | inactive |
| TMEM50A | 0.94 | inactive |
| TMEM50A | 0.76 | inactive |
| TMEM50A | 0.08 | inactive |
| TMEM50A | -0.11 | inactive |
| ABHD13 | -0.23 | inactive |
| ABHD13 | -0.92 | inactive |
| ABHD13 | 0.38 | inactive |
| ABHD13 | -0.33 | inactive |
